Measurements as given in publication PMC10760972.

Sequences of proteins named here, by UniProt entry; tags and fusion partners are left off.
UniProt P51587: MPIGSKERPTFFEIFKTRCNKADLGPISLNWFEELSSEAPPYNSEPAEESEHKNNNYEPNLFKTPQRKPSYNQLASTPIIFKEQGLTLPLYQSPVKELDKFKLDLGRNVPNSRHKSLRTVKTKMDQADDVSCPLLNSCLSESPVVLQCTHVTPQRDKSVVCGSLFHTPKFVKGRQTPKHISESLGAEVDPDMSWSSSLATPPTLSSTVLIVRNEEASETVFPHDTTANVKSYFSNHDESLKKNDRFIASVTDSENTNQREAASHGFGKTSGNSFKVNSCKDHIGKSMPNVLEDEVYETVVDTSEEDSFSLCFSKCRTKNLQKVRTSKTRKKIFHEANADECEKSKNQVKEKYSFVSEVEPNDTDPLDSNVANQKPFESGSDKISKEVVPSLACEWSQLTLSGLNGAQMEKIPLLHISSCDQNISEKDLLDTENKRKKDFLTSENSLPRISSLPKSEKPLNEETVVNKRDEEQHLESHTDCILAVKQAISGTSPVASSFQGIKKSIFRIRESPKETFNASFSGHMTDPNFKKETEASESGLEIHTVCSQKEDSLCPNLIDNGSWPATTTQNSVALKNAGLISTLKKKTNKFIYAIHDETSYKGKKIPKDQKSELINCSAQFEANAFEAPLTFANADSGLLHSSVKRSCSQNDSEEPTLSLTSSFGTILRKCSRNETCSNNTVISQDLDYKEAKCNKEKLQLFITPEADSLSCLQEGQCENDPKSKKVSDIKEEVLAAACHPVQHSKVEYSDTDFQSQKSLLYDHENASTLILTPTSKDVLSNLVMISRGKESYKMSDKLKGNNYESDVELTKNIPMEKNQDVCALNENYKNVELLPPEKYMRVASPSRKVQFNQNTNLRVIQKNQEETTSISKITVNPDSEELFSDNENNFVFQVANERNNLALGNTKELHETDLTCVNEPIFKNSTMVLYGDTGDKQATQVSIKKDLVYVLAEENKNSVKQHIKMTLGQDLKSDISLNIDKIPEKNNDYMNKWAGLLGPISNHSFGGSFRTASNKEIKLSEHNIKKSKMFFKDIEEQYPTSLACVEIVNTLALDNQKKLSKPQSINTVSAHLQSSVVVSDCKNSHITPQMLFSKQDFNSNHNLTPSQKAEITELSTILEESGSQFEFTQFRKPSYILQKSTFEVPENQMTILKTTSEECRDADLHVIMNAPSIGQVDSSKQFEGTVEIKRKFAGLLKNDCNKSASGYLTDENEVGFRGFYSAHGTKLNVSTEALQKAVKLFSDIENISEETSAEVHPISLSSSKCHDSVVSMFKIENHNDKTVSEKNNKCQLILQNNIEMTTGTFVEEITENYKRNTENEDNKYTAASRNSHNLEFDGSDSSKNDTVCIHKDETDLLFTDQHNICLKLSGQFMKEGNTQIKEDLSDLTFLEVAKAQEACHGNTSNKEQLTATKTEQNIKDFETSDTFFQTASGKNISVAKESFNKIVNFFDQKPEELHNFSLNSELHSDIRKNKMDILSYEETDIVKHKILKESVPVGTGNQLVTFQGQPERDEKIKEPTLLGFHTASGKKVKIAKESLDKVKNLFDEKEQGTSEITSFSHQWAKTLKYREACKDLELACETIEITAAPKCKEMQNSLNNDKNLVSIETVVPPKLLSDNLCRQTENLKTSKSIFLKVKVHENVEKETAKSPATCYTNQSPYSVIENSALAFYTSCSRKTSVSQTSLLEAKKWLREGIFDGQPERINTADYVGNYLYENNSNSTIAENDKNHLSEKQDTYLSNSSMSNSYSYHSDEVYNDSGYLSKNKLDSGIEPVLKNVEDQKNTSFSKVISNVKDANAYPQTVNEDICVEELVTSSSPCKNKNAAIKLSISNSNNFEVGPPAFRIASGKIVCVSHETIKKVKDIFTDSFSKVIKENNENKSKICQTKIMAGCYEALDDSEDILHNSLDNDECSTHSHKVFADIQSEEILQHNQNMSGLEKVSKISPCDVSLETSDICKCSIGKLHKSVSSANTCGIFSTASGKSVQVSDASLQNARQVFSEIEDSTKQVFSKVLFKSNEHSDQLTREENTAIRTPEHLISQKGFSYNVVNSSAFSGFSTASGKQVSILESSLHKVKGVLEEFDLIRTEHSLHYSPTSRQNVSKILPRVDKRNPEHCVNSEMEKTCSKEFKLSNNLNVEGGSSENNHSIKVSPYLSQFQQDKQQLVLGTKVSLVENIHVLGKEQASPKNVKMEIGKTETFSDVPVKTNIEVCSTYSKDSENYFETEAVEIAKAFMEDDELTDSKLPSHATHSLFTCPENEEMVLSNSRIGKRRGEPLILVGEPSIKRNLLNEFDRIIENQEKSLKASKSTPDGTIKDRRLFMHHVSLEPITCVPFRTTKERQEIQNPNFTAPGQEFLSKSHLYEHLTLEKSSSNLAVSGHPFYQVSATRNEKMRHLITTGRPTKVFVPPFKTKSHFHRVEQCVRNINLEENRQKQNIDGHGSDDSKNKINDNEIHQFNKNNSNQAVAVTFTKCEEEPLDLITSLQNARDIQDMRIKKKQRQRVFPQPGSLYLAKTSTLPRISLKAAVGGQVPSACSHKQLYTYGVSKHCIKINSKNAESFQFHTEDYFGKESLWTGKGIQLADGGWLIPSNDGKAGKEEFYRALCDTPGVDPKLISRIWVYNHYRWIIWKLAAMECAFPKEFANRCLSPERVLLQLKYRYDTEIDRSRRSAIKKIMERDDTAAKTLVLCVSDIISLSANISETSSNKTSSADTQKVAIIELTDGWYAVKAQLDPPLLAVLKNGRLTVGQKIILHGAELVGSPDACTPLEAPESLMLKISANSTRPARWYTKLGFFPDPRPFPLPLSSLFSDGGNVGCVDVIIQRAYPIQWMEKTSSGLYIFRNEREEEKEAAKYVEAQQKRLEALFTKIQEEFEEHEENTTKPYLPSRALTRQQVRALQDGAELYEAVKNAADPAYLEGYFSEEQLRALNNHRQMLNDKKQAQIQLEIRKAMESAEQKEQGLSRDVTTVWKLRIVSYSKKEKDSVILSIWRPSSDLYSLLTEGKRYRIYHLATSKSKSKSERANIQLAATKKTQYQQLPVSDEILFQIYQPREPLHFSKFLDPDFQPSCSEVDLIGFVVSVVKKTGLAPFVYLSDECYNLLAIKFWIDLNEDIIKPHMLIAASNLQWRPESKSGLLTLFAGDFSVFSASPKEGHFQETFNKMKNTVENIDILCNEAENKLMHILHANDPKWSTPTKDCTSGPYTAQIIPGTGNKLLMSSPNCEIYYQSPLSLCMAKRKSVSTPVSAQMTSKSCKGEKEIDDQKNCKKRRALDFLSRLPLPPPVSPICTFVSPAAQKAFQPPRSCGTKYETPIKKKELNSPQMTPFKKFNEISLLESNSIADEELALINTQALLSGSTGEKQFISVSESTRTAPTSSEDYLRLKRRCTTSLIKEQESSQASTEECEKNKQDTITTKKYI
UniProt O60566: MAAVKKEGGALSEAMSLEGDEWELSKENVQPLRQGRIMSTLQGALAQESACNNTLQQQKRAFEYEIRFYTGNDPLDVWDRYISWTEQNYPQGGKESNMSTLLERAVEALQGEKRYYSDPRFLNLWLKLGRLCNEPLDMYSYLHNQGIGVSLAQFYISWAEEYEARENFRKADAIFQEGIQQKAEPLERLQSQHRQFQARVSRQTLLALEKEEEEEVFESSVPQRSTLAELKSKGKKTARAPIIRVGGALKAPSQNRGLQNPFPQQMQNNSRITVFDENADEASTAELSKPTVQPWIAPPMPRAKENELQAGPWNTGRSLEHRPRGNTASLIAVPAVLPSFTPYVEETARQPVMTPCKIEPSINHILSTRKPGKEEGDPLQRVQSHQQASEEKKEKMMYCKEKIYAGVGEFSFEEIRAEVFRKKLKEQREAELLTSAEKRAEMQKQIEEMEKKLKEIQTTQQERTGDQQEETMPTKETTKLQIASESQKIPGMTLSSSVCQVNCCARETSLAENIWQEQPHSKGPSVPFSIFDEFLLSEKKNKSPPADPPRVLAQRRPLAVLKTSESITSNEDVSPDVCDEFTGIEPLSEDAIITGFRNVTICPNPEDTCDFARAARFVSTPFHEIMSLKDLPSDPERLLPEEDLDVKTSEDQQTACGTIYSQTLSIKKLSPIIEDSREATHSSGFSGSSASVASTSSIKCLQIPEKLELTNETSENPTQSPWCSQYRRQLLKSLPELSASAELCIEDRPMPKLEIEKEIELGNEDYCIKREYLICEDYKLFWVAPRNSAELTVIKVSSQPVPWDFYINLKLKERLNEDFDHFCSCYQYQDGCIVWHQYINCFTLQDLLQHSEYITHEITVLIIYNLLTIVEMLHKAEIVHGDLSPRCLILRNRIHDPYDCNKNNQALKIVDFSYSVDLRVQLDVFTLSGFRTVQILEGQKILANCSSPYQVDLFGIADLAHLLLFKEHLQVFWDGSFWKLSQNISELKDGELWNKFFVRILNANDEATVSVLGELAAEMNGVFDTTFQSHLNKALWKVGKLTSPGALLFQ
UniProt Q96GD4: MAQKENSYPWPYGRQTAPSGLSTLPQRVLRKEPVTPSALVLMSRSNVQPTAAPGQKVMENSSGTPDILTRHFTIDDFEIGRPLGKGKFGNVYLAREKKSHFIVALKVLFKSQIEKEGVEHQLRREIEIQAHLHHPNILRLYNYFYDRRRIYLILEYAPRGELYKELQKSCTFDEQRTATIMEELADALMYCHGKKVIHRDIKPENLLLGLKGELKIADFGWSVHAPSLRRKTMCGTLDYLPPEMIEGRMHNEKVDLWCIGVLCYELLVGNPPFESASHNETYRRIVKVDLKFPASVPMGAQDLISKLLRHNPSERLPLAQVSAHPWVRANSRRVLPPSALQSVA

Columns and labels:
BRCA2 = BRCA2 (UniProt P51587); experiment: affinity purification with mass spectrometry; endogenous immunoprecipitation of BRCA2; eluted proteins identified by mass spectrometry
SFB-NSFL1C = biological target: T1, SFB-NSFL1C (UniProt Q9UNZ2); experiment: affinity purification with mass spectrometry; tandem affinity purification (streptavidin-Sepharose, biotin elution, S-protein agarose; NETN buffer, 4 C) of SFB-NSFL1C from stable HEK293T cells; mass spectrometry
T1 sequence: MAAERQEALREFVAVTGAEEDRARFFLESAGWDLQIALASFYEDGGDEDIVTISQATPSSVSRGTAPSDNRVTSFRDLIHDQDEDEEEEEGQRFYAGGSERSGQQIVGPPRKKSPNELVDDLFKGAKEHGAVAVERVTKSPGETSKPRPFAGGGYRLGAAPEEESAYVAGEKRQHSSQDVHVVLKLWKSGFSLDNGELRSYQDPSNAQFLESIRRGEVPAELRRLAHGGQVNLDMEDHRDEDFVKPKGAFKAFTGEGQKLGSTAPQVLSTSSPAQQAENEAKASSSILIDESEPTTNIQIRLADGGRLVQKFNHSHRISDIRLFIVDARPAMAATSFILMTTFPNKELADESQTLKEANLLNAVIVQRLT

**Q.** For BubR1 (from UniProt O60566 1-1050), which binding (BRCA2) is on record?
**A.** The binding was “binds”.

**Q.** Which results are given for “Aurora kinase B (AURKB), endogenous (from UniProt Q96GD4 1-344)”?
**A.** binding (SFB-NSFL1C): binds; binding (BRCA2): binds

Results are given in words; binding and its absence hold for the method and conditions named. Binding seen in cells or lysates may run through a third protein. A yes stands for co-enrichment or nearness to the bait. Other partners may have been found.
